The list is a part of this screen's results and no random one: it gathers tests that were run many times, whatever their T/C, doses with no T/C, and many T/C values between a quarter and a half above the control. Further doses and runs are listed elsewhere. T/C: endpoint of the treated group in % of that of the vehicle group. Some entries give survivors of the animals treated and no T/C: the source files T/C as zero there, which appears to mark a toxic dose or a test without result, not a measured value. Some doses without a T/C left all or most animals alive at the check, yet need not have been tolerated: the source hardly ever lists a survival T/C far under the control, and the zero likely stands for such cases as well. Survivors were counted at the toxicity check, usually on the fifth day, unless a day is given; later deaths do not show. Schedule codes are those of the source, read here as Q, the interval in days (D) or hours (H), X, the number of doses. Some entries were tested several times; the values are given in rising order. For survival time, this PubChem deposit counts one and a half times the control or more as active, and values a quarter to a half above the control carry no call in these data; other NCI protocols may use other cut-offs. Some T/C values carry the count of animals alive at the toxicity check (mostly the fifth day); without a count, all were alive then.
Test system: nude mice, LOX melanoma ip, survival T/C
Assay: NCI In Vivo Anticancer Drug Screen. Data for tumor model Human Amelanotic Melanoma (LOX) (intraperitoneal) in NU/NU BALB/C (nude) mice
Conditions: T/C endpoint: median survival time, schedule: Q04DX003 (ip), higher T/C = longer survival
Procedure: The antitumor activity of compounds was measured in mice bearing transplantable tumors. Survival or tumor size were measured and the results are expressed as the measurement made in the treated group (T) divided by the measurement made in the vehicle treated control group (C). The tumor model used in this assay is Human Amelanotic Melanoma (LOX) (intraperitoneal) in NU/NU BALB/C (nude) mice

[1] = dose: 150.0 mg/kg/injection, vehicle: Klucel (hydroxypropylcellulose) (HPC)
[2] = dose: 300.0 mg/kg/injection, vehicle: Klucel (hydroxypropylcellulose) (HPC)
[3] = dose: 1200.0 mg/kg/injection, vehicle: Klucel (hydroxypropylcellulose) (HPC)
[4] = dose: 400.0 mg/kg/injection, vehicle: saline with Tween-80
[5] = dose: 300.0 mg/kg/injection, vehicle: saline with Tween-80
[6] = dose: 1200.0 mg/kg/injection, vehicle: saline with Tween-80
[7] = dose: 90.0 mg/kg/injection, vehicle: saline with Tween-80
[8] = dose: 150.0 mg/kg/injection, vehicle: saline with Tween-80

O=NN(CCCl)C(=O)Oc1ccc(OC(=O)N(CCCl)N=O)cc1
T/C (dose: 5.0 mg/kg/injection, vehicle: Klucel (hydroxypropylcellulose) (HPC)): 136 % of control | T/C (dose: 10.0 mg/kg/injection, vehicle: Klucel (hydroxypropylcellulose) (HPC)): 130 % of control | survivor count (dose: 75.0 mg/kg/injection, vehicle: Klucel (hydroxypropylcellulose) (HPC)): 0 of 4 on day 10 and 0 of 6 on day 10 | survivor count (dose: 80.0 mg/kg/injection, vehicle: Klucel (hydroxypropylcellulose) (HPC)): 1 of 6 on day 10 | survivor count [1]: 0 of 4 on day 10 and 0 of 6 on day 10 | survivor count [2]: 0 of 4 on day 10 and 0 of 6 on day 10 | survivor count (dose: 600.0 mg/kg/injection, vehicle: Klucel (hydroxypropylcellulose) (HPC)): 0 of 4 on day 10 and 0 of 6 on day 10 | survivor count [3]: 0 of 4 on day 10 and 0 of 6 on day 10

Cc1cc(Nc2ccc3c(c2)OCO3)c2cc3c(cc2n1)OCO3
T/C [1]: 125 % of control | survivor count [2]: 2 of 6 on day 10 | T/C (dose: 360.0 mg/kg/injection, vehicle: Klucel (hydroxypropylcellulose) (HPC)): 131 % of control | survivor count (dose: 1000.0 mg/kg/injection, vehicle: Klucel (hydroxypropylcellulose) (HPC)): 1 of 6 on day 10 | survivor count [3]: 0 of 6 on day 10 | survivor count (dose: 1667.0 mg/kg/injection, vehicle: Klucel (hydroxypropylcellulose) (HPC)): 0 of 6 on day 10

CC(C)(C[NH-])C[NH-].[Cl][Pt+2][Cl]
T/C (dose: 0.75 mg/kg/injection, vehicle: water): 136 % of control | T/C (dose: 1.5 mg/kg/injection, vehicle: water): 127 % of control | T/C (dose: 3.0 mg/kg/injection, vehicle: water): 135 % of control | survivor count (dose: 6.0 mg/kg/injection, vehicle: water): 6 of 6 on day 10 | T/C (dose: 12.0 mg/kg/injection, vehicle: water): 131 % of control [4 of 6 alive on day 10]

CCCCCCn1c(SC)nc(COC(=O)NC)c1COC(=O)NC
survivor count (dose: 270.0 mg/kg/injection, vehicle: saline): 0 of 6 on day 10 | survivor count (dose: 540.0 mg/kg/injection, vehicle: saline): 0 of 6 on day 10

O=C(C/C(=N\C(=S)Nc1cc(C(F)(F)F)ccc1Cl)NO)N1CCCC1
survivor count [4]: 2 of 5 on day 10 | survivor count (dose: 800.0 mg/kg/injection, vehicle: saline with Tween-80): 1 of 6 on day 10

COc1cc(C(C)c2cc3c(cc2OCCO)OCO3)cc(OC)c1OC (stereo not given)
T/C [5]: 126 % of control | survivor count [6]: 1 of 6 on day 10

O=c1[nH]cnc2c1nnn2C1OC(CO)C(O)C1O (stereo not given)
T/C (dose: 75.0 mg/kg/injection, vehicle: suspension in saline): 128 % of control | T/C (dose: 150.0 mg/kg/injection, vehicle: suspension in saline): 137 % of control | T/C (dose: 300.0 mg/kg/injection, vehicle: suspension in saline): 128 and 145 % of control | T/C (dose: 500.0 mg/kg/injection, vehicle: suspension in saline): 147 % of control | T/C (dose: 600.0 mg/kg/injection, vehicle: suspension in saline): 144 % of control | T/C (dose: 1200.0 mg/kg/injection, vehicle: suspension in saline): 141 % of control | T/C (dose: 1388.0 mg/kg/injection, vehicle: suspension in saline): 138 % of control

COc1ccc(C(C)c2cc3c(cc2OC)OCO3)cc1 (stereo not given)
T/C (dose: 12.5 mg/kg/injection, vehicle: saline with Tween-80): 145 % of control | T/C (dose: 50.0 mg/kg/injection, vehicle: saline with Tween-80): 132 % of control

COC1=C(OC)C(=O)C(N(C)C)=C(CO)C1=O
survivor count (dose: 400.0 mg/kg/injection, vehicle: saline): 0 of 6 on day 10

O=c1[nH]cnc2c1cnn2CN1CCOCC1
survivor count (dose: 200.0 mg/kg/injection, vehicle: Klucel (hydroxypropylcellulose) (HPC)): 2 of 6 on day 10 | survivor count (dose: 400.0 mg/kg/injection, vehicle: Klucel (hydroxypropylcellulose) (HPC)): 0 of 6 on day 10

[Cl][Pt][Cl].[NH-]C(CO)C(=O)O (stereo not given)
T/C (dose: 75.0 mg/kg/injection, vehicle: water): 139 % of control | survivor count (dose: 150.0 mg/kg/injection, vehicle: water): 1 of 6 on day 10

CN(C)N=Nc1ccc(C(N)=O)cc1
T/C [7]: 147 % of control

COc1cc2c[n+](C)c3c(c2cc1OC)Cc1cc2c(cc1-3)OCO2
T/C (dose: 37.5 mg/kg/injection, vehicle: saline with Tween-80): 130 % of control | T/C (dose: 75.0 mg/kg/injection, vehicle: saline with Tween-80): 147 % of control | survivor count [5]: 2 of 6 on day 10

C=COC(=O)C(Cc1ccccc1)NC(=O)OCc1ccccc1 (stereo not given)
survivor count [8]: 6 of 6 on day 10 | survivor count [5]: 6 of 6 on day 10 | survivor count (dose: 600.0 mg/kg/injection, vehicle: saline with Tween-80): 5 of 6 on day 10 | survivor count [6]: 2 of 6 on day 10

COc1ccc(S(=O)(=O)N=N/C=C2\C=CC=CN2O)cc1OC
T/C [7]: 137 % of control [5 of 6 alive on day 10] | T/C [8]: 137 % of control

S=C1CCCCN1
survivor count (dose: 300.0 mg/kg/injection, vehicle: distilled water + Tween-80 + alcohol): 0 of 6 on day 10 | survivor count (dose: 600.0 mg/kg/injection, vehicle: distilled water + Tween-80 + alcohol): 0 of 6 on day 10

CC1(C)Nc2cc3c(cc2-n2cccc21)oc1ccccc13
survivor count (dose: 600.0 mg/kg/injection, vehicle: DMSO): 6 of 6 on day 10

NC(Cc1ccc(N(CCCl)Cc2ccccc2)cc1)C(=O)O (stereo not given)
T/C (dose: 43.0 mg/kg/injection, vehicle: saline with Tween-80): 128 % of control | T/C (dose: 72.0 mg/kg/injection, vehicle: saline with Tween-80): 127 % of control | T/C (dose: 100.0 mg/kg/injection, vehicle: saline with Tween-80): 132 % of control | T/C (dose: 120.0 mg/kg/injection, vehicle: saline with Tween-80): 144 % of control | survivor count (dose: 333.0 mg/kg/injection, vehicle: saline with Tween-80): 3 of 6 on day 10 | survivor count [4]: 3 of 6 on day 10

CN=NN(C)C(=O)NC
T/C (dose: 12.5 mg/kg/injection, vehicle: saline): 131 % of control | survivor count (dose: 200.0 mg/kg/injection, vehicle: saline): 6 of 6 on day 10

O=C([O][Bi]([c]1ccccc1)[c]1ccccc1)c1ccccc1
T/C (dose: 25.0 mg/kg/injection, vehicle: Klucel (hydroxypropylcellulose) (HPC)): 137 % of control | T/C (dose: 100.0 mg/kg/injection, vehicle: Klucel (hydroxypropylcellulose) (HPC)): 137 % of control

NCc1cc(O)c(O)c(O)c1
survivor count (dose: 300.0 mg/kg/injection, vehicle: saline): 6 of 6 on day 10 | survivor count (dose: 1200.0 mg/kg/injection, vehicle: saline): 2 of 6 on day 10

O=C1C=CC2OC(c3ccccc3)C(O)C2O1 (stereo not given)
survivor count (dose: 100.0 mg/kg/injection, vehicle: DMSO): 0 of 6 on day 10

Reference: PubChem BioAssay AID280 (DTP/NCI, 2004)
